Laboratory results as given in US20230242669A1, “ANTIBODY THAT BINDS ERBB-2 AND ERBB-3” (Merus N.V., priority 2014, published 2023).
For at least one compound, name, drawing or mass did not settle the structure.

Tested on: HER2 overexpressing cells (SK-BR-3, BT-474, N87)
Experiment: Drug combinations with PB4188 in vitro (checkerboard, isobolograms)
Type: cell-based, human
Conditions: HER2 amplified cells, HRG
Procedure: Moreover, combination with chemotherapeutic drugs and cyclin inhibitors were tested. Combinations were tested on HER2 overexpressing cells growing in the presence of HRG in […]® (SK-BR-3 and BT-474) or in the presence of HRG stress concentrations (N87 and SK-BR-3 as described in proliferation assays). The inhibitory effect of drug combinations was tested by imaging or by measuring proliferation using Alamar Blue as described herein before. […] The extent of growth inhibition obtained with each combination was calculated. […] The inhibition values of the combination experiments were used by CHALICE™ Analyzer software to generate the isobolograms.

## CN1CCN(CCOc2cc(OC3CCOCC3)c3c(Nc4c(Cl)ccc5c4OCO5)ncnc3c2)CC1 [saracatinib]
  Drug combination with PB4188 (isobologram analysis): synergistic
